Assay results as given in US12240920B2, “Cyclic peptidomimetic for the treatment of neurological disorders” (Brown University, priority 2019, dated 2025).
“Also recorded” adds a separate entry of the source. For at least one compound, name, drawing or mass did not settle the structure.

What was measured:
AS hippocampal slices = details: in vivo administration; CA1 extracellular field potential recordings; cited from earlier work
[1] = system: chronic mild stress (CMS) mouse model; test: Tail Suspension Test (TST) in the CMS model; format: in vivo, mice; details: acute injection, Day 7 after injection
[2] = system: chronic mild stress (CMS) mouse model; test: Chronic mild stress (CMS) model, onset of antidepressant response; format: in vivo, mice; details: single injection
retina = test: Neuroprotection (test model: retina, NMDA-induced chemical stroke); details: in vivo
[3] = system: repeated corticosterone-injected mice; test: Tail Suspension Test (TST) in repeated corticosterone (CORT)-injected mice; format: in vivo; details: tail vein injection
[4] = system: chronic mild stress (CMS) mouse model; test: Forced Swim Test (FST) in the CMS model; format: in vivo, mice; details: acute injection, Day 7 after injection
[5] = system: chronic mild stress (CMS) mouse model; test: Novelty-suppressed feeding (NSF) in the CMS model; format: in vivo; details: CMS mice, single injection 10 mg/kg, 1 hour prior to testing
[6] = system: chronic mild stress (CMS) mouse model; test: Elevated plus-maze (EPM) in the CMS model; format: in vivo; details: CMS mice, single injection 10 mg/kg
[7] = system: repeated corticosterone-injected mice; test: Forced Swimming Test (FST) in repeated corticosterone (CORT)-injected mice; format: in vivo; details: tail vein injection

In the case of `CC(C)[C@H](NC(=O)[C@@H]1CCC(=O)NCCC(=O)NCCCC[C@H](NC(=O)[C@H](CCCCN)NC(=O)[C@H](Cc2ccc(O)cc2)NC(=O)[C@H](CC(N)=O)NC(=O)[C@H](CCCCN)NC(=O)[C@@H](N)CSSC[C@@H](N)C(=O)N[C@@H](CCCNC(=N)N)C(=O)N[C@@H](CCCNC(=N)N)C(=O)N[C@@H](CCCNC(=N)N)C(=O)N[C@@H](CCCNC(=N)N)C(=O)N[C@@H](CCCNC(=N)N)C(=O)N[C@@H](CCCNC(=N)N)C(=O)N[C@@H](CCCNC(=N)N)C(N)=O)C(=O)N[C@@H]([C@@H](C)O)C(=O)N1)C(=O)O` [CN2097, R7Cs-sCYK[KTE(β-Ala)]V], the “restoring hippocampal LTP in an Angelman Syndrome mouse model (previously shown)” value (AS hippocampal slices) is listed as “restore hippocampal LTP”, the “duration of immobility time in the Tail Suspension Test” value [1] is listed as “significantly reduced the duration of immobility time” and the “time to anti-depressant efficacy / reversal of behavioral effects in the CMS model” value [2] is listed as no more than 2 h. The neuroprotection (retina) was “capable of neuroprotection”, the “time spent immobile in the TST” value ([3]; 1 week before TST onset) was “significantly decreased the time spent immobile” and the “time spent immobile in the TST” value ([3]; 12 hours before TST onset) was “significantly decreased the time spent immobile”. The “duration of immobility time in the Forced Swim Test” value [4] was “significantly reduced the duration of immobility time”, the “latency period until feeding (NSF)” value [5] was “significantly shortened the latency period until feeding; also recorded: mitigates the effects of Chronic Mild Stress (CMS)” and the “time spent in open arms in the EPM” value [6] was “increased the time spent in open arms; also recorded: mitigates the effects of Chronic Mild Stress (CMS)”. The “time spent immobile in the FST” value ([7]; 1 week before TST onset) was “significantly decreased the time spent immobile” and the “immobility time in the FST” value ([7]; 12 hours before TST onset) was “did not affect the immobility time”.
